Measurements reported in PubChem BioAssay AID686937 (Drosophila RNAi Screening Center, 2013).

Test: 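Genes in the fly needed for secretion of protein constitutively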 (primary screen)
Cells: Drosophila S2 cells expressing secreted horseradish peroxidase
Reagent: long dsRNA against Drosophila genes
Time to read-out: about 5.5 days (5 days dsRNA, then 12 h reporter induction)
Conditions: reporter expression induced after 5 days of dsRNA, read 12 h later; inducer not stated
Measurement: 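Chemiluminescent measurement of peroxidase in the medium 12 h after reporter induction, following 5 days of dsRNA, given as a z-score per plate; higher means more secretion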
Reading the numbers: z-score: higher = more reporter secreted into medium
In all, the deposit lists about 23,000 reagents; this is a random part of those with a known target gene and a result. 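Reduced-secretion tags in replicate 1 do not always agree with the z-scores; no criterion for assigning the tags was given.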 The numbers tell different reagents against one gene apart. Names joined by + are all predicted targets of the reagent. No sequences are given here. Not given: the amount of reagent.

| gene knocked down | dsRNA no. | z-score, replicate 1 | z-score, replicate 2 | z-score, replicate 3 | z-score, replicate 4 | phenotype, replicate 1 |
| --- | --- | --- | --- | --- | --- | --- |
| CG7544 | 1 | 0.9 | 0.58 | – | – | – |
| GstD3 | 1 | 0.4 | 0.06 | – | – | – |
| Cpr49Ab | 1 | 0.2 | 0.27 | – | – | – |
| RanBPM | 1 | 0.76 | 0.55 | – | – | – |
| CG7148 | 1 | 0.57 | 0.33 | – | – | – |
| Trpm | 1 | 0.35 | 0.22 | – | – | – |
| Trpm | 2 | 0.09 | 1.79 | – | – | – |
| CheA46a | 1 | 0.21 | – | – | – | – |
| CG10073 | 1 | 0.24 | -0.15 | – | – | – |
| CG18662 | 1 | 0.44 | 0.33 | – | – | – |
| CG3294 | 1 | 0.26 | 0.32 | – | – | – |
| CG13311 | 1 | 0.39 | 0.29 | – | – | – |
| CG4707 | 1 | 0.11 | 0.18 | – | – | – |
| CG5167 | 1 | 0.4 | 0.7 | – | – | – |
| cv-d | 1 | 0.13 | -0.02 | – | – | – |
| cv-d | 2 | -0.15 | -0.47 | – | – | – |
| cv-d | 3 | 0.3 | 0.29 | – | – | – |
| CG15435 | 1 | 0.71 | 0.4 | – | – | – |
| sstn | 1 | 0.65 | 0.32 | – | – | – |
| CG11816 | 1 | -0.13 | 0.78 | – | – | – |
| SdhBL | 1 | 0.35 | 0.19 | – | – | – |
| CG17047 | 1 | 0.33 | 0.52 | – | – | – |
| Noc2 | 1 | -0.15 | -0.27 | – | – | – |
| coil | 1 | 0.33 | 0.26 | – | – | – |
| CG10359 | 1 | 0.14 | 0.06 | – | – | – |
| CG9451 | 1 | 0.16 | -0.14 | – | – | – |
| CG12325 | 1 | 0.09 | 0.1 | – | – | – |
| Stlk | 1 | -0.22 | 0.04 | – | – | – |
| l(2)k09022 | 1 | 0.26 | 0.25 | – | – | – |
| HP1c | 1 | 0.23 | 0.13 | 0.29 | 0.41 | – |
| CG30375 | 1 | 0.48 | 0.49 | – | – | – |
| CG32221 | 1 | -0.58 | 0.19 | – | – | – |
| CG4558 | 1 | 0.31 | 0.69 | – | – | – |
| CG6652 | 1 | 0.48 | 0.39 | – | – | – |
| CG4372 | 1 | 0.11 | 0.3 | – | – | – |
| CG11779 | 1 | 0.13 | 0.03 | – | – | – |
| CG8476 | 1 | 0.15 | 0.29 | – | – | – |
| Csas | 1 | 0.63 | 0.46 | – | – | – |
| wupA | 1 | 0.55 | 0.32 | 0.38 | 0.27 | – |
| wupA | 2 | -0.13 | -0.3 | – | – | – |
| CG32344 | 1 | 0.14 | 0.22 | – | – | – |
| CG2685 | 1 | -1.54 | -1.83 | – | – | reduced secretion |
| CG43755 | 1 | -0.12 | 0.33 | – | – | – |
| CG12106 | 1 | 0.45 | 0.39 | – | – | – |
| CG10005 | 1 | -0.03 | -0.02 | – | – | – |
| dpr3 | 1 | 0.19 | -0.06 | – | – | – |
| dpr3 | 2 | 0.55 | 0.52 | – | – | – |
| dpr3 | 3 | -1.72 | -2.08 | – | – | reduced secretion |
| mthl10 | 1 | 0.19 | 0.13 | – | – | – |
| mthl10 | 2 | 0.61 | 0.42 | – | – | – |
| Fancd2 | 1 | 0.05 | 0.3 | – | – | – |
| Fancd2 | 2 | -1.1 | -0.26 | – | – | – |
| VepD | 1 | -0.64 | 0.04 | – | – | – |
| Semp1 | 1 | 0.33 | 0.32 | – | – | – |
| Tektin-A | 1 | 0.2 | 0.28 | – | – | – |
| cer | 1 | 0.32 | 0.08 | – | – | – |
| 5-HT1A | 1 | 0.36 | 0.41 | – | – | – |
| Acp32CD | 1 | 0.27 | 0.28 | – | – | – |
| Vta1 | 1 | 0.26 | 0.65 | 0.43 | -0.09 | – |
| Vta1 | 2 | -0.04 | -0.08 | – | – | – |
| sut2 | 1 | 0.4 | 0.22 | – | – | – |
| Nplp4 | 1 | 0.43 | 0.79 | – | – | – |
| Tsc1 | 1 | 0.63 | 0.43 | – | – | – |
| ACOX1 | 1 | 0.32 | 0.19 | – | – | – |
| Aduk | 1 | 0.4 | 0.1 | – | – | – |
| RNF220 | 1 | 0.08 | 0.46 | – | – | – |
| Rae1 | 1 | -0.23 | -0.46 | – | – | – |
| Tim23 | 1 | 0.09 | 0.16 | – | – | – |
| lncRNA:CR32385 | 1 | -0.05 | -0.26 | – | – | – |
| CG30345 | 1 | -0.07 | – | – | – | – |
| ebo | 1 | 0.34 | 0.08 | – | – | – |
| Rab35 | 1 | -1.06 | -1 | – | – | – |
| CG6959 | 1 | 0.11 | 0.86 | – | – | – |
| CG3746 | 1 | 0.05 | 0.5 | – | – | – |
| Pex11ab | 1 | 0.28 | 0.12 | – | – | – |
| CG31809 | 1 | -0.03 | 0.2 | – | – | – |
| Diedel | 1 | 0.29 | 0.18 | – | – | – |
| CG5623 | 1 | 0.4 | -0.08 | – | – | – |
| Ac3 | 1 | 0.13 | 0.23 | – | – | – |
| Lcp65Ag3 + Lcp65Ag2 + Lcp65Ag1 | 1 | 0.36 | 0.27 | – | – | – |
| Lcp65Ag3 + Lcp65Ag2 + Lcp65Ag1 | 2 | 0.13 | 0.25 | – | – | – |
| IntS10 | 1 | 0.82 | 0.4 | – | – | – |
| CG31204 | 1 | 0.4 | 0.41 | – | – | – |
| CG42809 | 1 | 0.4 | 0.31 | – | – | – |
| CG14826 | 1 | 0.41 | 0.29 | – | – | – |
| CG4955 | 1 | 0.26 | 0.48 | – | – | – |
| CG32532 | 1 | 0.58 | 0.12 | – | – | – |
| CG32532 | 2 | 0.58 | 0.17 | – | – | – |
| CG32532 | 3 | 0.49 | 0.25 | – | – | – |
| CG32532 | 4 | 1.52 | -0.37 | – | – | – |
| CG9877 | 1 | 0.01 | 0.33 | – | – | – |
| CG7492 | 1 | 0.6 | 0.38 | – | – | – |
| cno | 1 | 0.12 | 0.27 | – | – | – |
| cno | 2 | -2.86 | -1.99 | – | – | reduced secretion |
| CG43123 | 1 | 0.08 | – | – | – | – |
| Ak3 | 1 | 0.11 | 0.81 | – | – | – |
| CG4390 | 1 | 0.41 | 0.43 | – | – | – |
| jigr1 | 1 | 0.41 | 0.61 | – | – | – |
| jigr1 | 2 | 0.44 | 0.46 | – | – | – |
| jigr1 | 3 | -0.11 | -0.48 | – | – | – |
| CG1785 | 1 | 0.4 | 0.4 | – | – | – |
| Cdk4 | 1 | -0.25 | -0.11 | – | – | – |
| Arr2 | 1 | 0.55 | -0.52 | – | – | – |
| Atac2 | 1 | 0.14 | 0.27 | – | – | – |

Reprinted from the listing, 14 entries:
| gene knocked down | dsRNA no. | z-score, replicate 1 | z-score, replicate 2 | z-score, replicate 3 | z-score, replicate 4 | phenotype, replicate 1 |
| --- | --- | --- | --- | --- | --- | --- |
| CG11816 | 1 | -0.13 | 0.78 | – | – | – |
| SdhBL | 1 | 0.35 | 0.19 | – | – | – |
| CG17047 | 1 | 0.33 | 0.52 | – | – | – |
| Noc2 | 1 | -0.15 | -0.27 | – | – | – |
| coil | 1 | 0.33 | 0.26 | – | – | – |
| CG10359 | 1 | 0.14 | 0.06 | – | – | – |
| CG9451 | 1 | 0.16 | -0.14 | – | – | – |
| CG12325 | 1 | 0.09 | 0.1 | – | – | – |
| Stlk | 1 | -0.22 | 0.04 | – | – | – |
| l(2)k09022 | 1 | 0.26 | 0.25 | – | – | – |
| HP1c | 1 | 0.23 | 0.13 | 0.29 | 0.41 | – |
| CG30375 | 1 | 0.48 | 0.49 | – | – | – |
| CG32221 | 1 | -0.58 | 0.19 | – | – | – |
| CG4558 | 1 | 0.31 | 0.69 | – | – | – |
